Article PMC11090974, “Structural basis for the distinct roles of non-conserved Pro116 and conserved Tyr124 of BCH domain of yeast p50RhoGAP” (Cellular and Molecular Life Sciences: CMLS, 2024)
These are yes or no findings as the source states them, for the method shown. In cells and extracts the contact can be indirect. Some results given as binding are weak or reduced against the parent protein; the word gives no strength. Where a sequence is shown, tags or fusion partners need not be part of it.

Chains of the proteins cited; added tags and fusions are not shown.
UniProt P61586: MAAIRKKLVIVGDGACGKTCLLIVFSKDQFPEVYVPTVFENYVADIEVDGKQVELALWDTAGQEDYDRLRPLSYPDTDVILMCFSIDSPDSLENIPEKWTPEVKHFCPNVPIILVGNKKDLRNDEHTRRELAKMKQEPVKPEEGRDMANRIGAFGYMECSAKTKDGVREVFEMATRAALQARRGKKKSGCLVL

T1: FLAG-p50RhoGAP Y188E (human) (UniProt Q07960)
T1 sequence: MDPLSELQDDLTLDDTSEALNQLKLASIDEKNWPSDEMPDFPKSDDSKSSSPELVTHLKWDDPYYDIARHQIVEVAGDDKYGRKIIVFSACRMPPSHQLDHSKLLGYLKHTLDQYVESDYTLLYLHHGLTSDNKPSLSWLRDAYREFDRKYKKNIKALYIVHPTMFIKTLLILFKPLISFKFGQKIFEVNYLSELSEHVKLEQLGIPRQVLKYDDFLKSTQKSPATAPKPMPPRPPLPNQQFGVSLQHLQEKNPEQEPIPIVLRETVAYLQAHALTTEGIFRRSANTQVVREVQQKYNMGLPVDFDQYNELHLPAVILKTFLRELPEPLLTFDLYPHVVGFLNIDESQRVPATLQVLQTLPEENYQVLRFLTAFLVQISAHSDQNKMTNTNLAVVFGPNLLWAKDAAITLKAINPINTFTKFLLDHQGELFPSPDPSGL

T2: FLAG-p50RhoGAP Y188D (human) (UniProt Q07960)
T2 sequence: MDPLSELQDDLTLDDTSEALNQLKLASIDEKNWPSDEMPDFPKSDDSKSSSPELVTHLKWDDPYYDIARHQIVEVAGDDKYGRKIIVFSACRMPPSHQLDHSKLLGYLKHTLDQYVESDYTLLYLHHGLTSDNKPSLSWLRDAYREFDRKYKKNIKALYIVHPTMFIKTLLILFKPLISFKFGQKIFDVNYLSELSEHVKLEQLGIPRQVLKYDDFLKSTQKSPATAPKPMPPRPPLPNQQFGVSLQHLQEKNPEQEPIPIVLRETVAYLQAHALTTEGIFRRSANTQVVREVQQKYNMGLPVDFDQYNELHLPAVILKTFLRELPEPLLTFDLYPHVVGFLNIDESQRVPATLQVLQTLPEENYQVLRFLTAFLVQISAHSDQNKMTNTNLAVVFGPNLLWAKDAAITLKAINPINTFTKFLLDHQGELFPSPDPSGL

T3: human p50RhoGAP, wild type (FLAG-p50RhoGAP or HA-p50RhoGAP) (human), Q07960
T3 chain: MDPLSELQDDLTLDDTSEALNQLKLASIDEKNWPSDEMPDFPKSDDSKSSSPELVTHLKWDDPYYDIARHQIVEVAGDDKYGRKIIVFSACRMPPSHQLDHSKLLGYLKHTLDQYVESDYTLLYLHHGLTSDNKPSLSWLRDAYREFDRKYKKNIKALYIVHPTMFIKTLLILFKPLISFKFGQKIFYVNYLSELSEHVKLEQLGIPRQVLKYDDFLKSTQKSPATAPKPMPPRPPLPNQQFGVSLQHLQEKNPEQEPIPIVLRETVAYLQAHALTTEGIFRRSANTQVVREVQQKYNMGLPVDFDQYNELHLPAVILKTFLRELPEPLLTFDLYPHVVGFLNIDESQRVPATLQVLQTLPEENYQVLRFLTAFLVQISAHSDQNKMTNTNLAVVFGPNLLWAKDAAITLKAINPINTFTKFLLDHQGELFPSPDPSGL


Key:
[1] = biological target: HA-RhoA (UniProt P61586); experiment: co-IP; 293T cells co-transfected, lysed in modified RIPA buffer; HA-tagged protein precipitated with anti-HA magnetic beads, FLAG-tagged partner detected by western blot
[2] = biological target: T1, FLAG-p50RhoGAP Y188E (human); experiment: co-IP; 293T cells co-transfected, lysed in modified RIPA buffer; FLAG-tagged protein precipitated with anti-FLAG M2 beads, HA-tagged partner detected by western blot
[3] = biological target: T2, FLAG-p50RhoGAP Y188D (human); experiment: as above
[4] = biological target: T3, human p50RhoGAP, wild type …; experiment: as above; details: remark: other sources report otherwise

Row | Binder | binding [1] | further results
1 | FLAG-p50RhoGAP F187P (protein, UniProt Q07960 1-439) MDPLSELQDDLTLDDTSEALNQLKLASIDEKNWPSDEMPDFPKSDDSKSSSPELVTHLKWDDPYYDIARHQIVEVAGDDKYGRKIIVFSACRMPPSHQLDHSKLLGYLKHTLDQYVESDYTLLYLHHGLTSDNKPSLSWLRDAYREFDRKYKKNIKALYIVHPTMFIKTLLILFKPLISFKFGQKIPYVNYLSELSEHVKLEQLGIPRQVLKYDDFLKSTQKSPATAPKPMPPRPPLPNQQFGVSLQHLQEKNPEQEPIPIVLRETVAYLQAHALTTEGIFRRSANTQVVREVQQKYNMGLPVDFDQYNELHLPAVILKTFLRELPEPLLTFDLYPHVVGFLNIDESQRVPATLQVLQTLPEENYQVLRFLTAFLVQISAHSDQNKMTNTNLAVVFGPNLLWAKDAAITLKAINPINTFTKFLLDHQGELFPSPDPSGL | binds | –
2 | FLAG-p50RhoGAP Y188F (protein, UniProt Q07960 1-439) MDPLSELQDDLTLDDTSEALNQLKLASIDEKNWPSDEMPDFPKSDDSKSSSPELVTHLKWDDPYYDIARHQIVEVAGDDKYGRKIIVFSACRMPPSHQLDHSKLLGYLKHTLDQYVESDYTLLYLHHGLTSDNKPSLSWLRDAYREFDRKYKKNIKALYIVHPTMFIKTLLILFKPLISFKFGQKIFFVNYLSELSEHVKLEQLGIPRQVLKYDDFLKSTQKSPATAPKPMPPRPPLPNQQFGVSLQHLQEKNPEQEPIPIVLRETVAYLQAHALTTEGIFRRSANTQVVREVQQKYNMGLPVDFDQYNELHLPAVILKTFLRELPEPLLTFDLYPHVVGFLNIDESQRVPATLQVLQTLPEENYQVLRFLTAFLVQISAHSDQNKMTNTNLAVVFGPNLLWAKDAAITLKAINPINTFTKFLLDHQGELFPSPDPSGL | binds weakly | –
3 | human p50RhoGAP, wild type (FLAG-p50RhoGAP or HA-p50RhoGAP) (protein, UniProt Q07960 1-439) MDPLSELQDDLTLDDTSEALNQLKLASIDEKNWPSDEMPDFPKSDDSKSSSPELVTHLKWDDPYYDIARHQIVEVAGDDKYGRKIIVFSACRMPPSHQLDHSKLLGYLKHTLDQYVESDYTLLYLHHGLTSDNKPSLSWLRDAYREFDRKYKKNIKALYIVHPTMFIKTLLILFKPLISFKFGQKIFYVNYLSELSEHVKLEQLGIPRQVLKYDDFLKSTQKSPATAPKPMPPRPPLPNQQFGVSLQHLQEKNPEQEPIPIVLRETVAYLQAHALTTEGIFRRSANTQVVREVQQKYNMGLPVDFDQYNELHLPAVILKTFLRELPEPLLTFDLYPHVVGFLNIDESQRVPATLQVLQTLPEENYQVLRFLTAFLVQISAHSDQNKMTNTNLAVVFGPNLLWAKDAAITLKAINPINTFTKFLLDHQGELFPSPDPSGL | binds weakly | binding [2]: binds; binding [3]: binds
4 | human p50RhoGAP, wild type (FLAG-p50RhoGAP or HA-p50RhoGAP), Q07960 1-439 (protein) MDPLSELQDDLTLDDTSEALNQLKLASIDEKNWPSDEMPDFPKSDDSKSSSPELVTHLKWDDPYYDIARHQIVEVAGDDKYGRKIIVFSACRMPPSHQLDHSKLLGYLKHTLDQYVESDYTLLYLHHGLTSDNKPSLSWLRDAYREFDRKYKKNIKALYIVHPTMFIKTLLILFKPLISFKFGQKIFYVNYLSELSEHVKLEQLGIPRQVLKYDDFLKSTQKSPATAPKPMPPRPPLPNQQFGVSLQHLQEKNPEQEPIPIVLRETVAYLQAHALTTEGIFRRSANTQVVREVQQKYNMGLPVDFDQYNELHLPAVILKTFLRELPEPLLTFDLYPHVVGFLNIDESQRVPATLQVLQTLPEENYQVLRFLTAFLVQISAHSDQNKMTNTNLAVVFGPNLLWAKDAAITLKAINPINTFTKFLLDHQGELFPSPDPSGL | – | binding [4]: binds
5 | FLAG-p50RhoGAP Y188E (protein, UniProt Q07960 1-439) MDPLSELQDDLTLDDTSEALNQLKLASIDEKNWPSDEMPDFPKSDDSKSSSPELVTHLKWDDPYYDIARHQIVEVAGDDKYGRKIIVFSACRMPPSHQLDHSKLLGYLKHTLDQYVESDYTLLYLHHGLTSDNKPSLSWLRDAYREFDRKYKKNIKALYIVHPTMFIKTLLILFKPLISFKFGQKIFEVNYLSELSEHVKLEQLGIPRQVLKYDDFLKSTQKSPATAPKPMPPRPPLPNQQFGVSLQHLQEKNPEQEPIPIVLRETVAYLQAHALTTEGIFRRSANTQVVREVQQKYNMGLPVDFDQYNELHLPAVILKTFLRELPEPLLTFDLYPHVVGFLNIDESQRVPATLQVLQTLPEENYQVLRFLTAFLVQISAHSDQNKMTNTNLAVVFGPNLLWAKDAAITLKAINPINTFTKFLLDHQGELFPSPDPSGL | binds | –
6 | FLAG-p50RhoGAP Y188D (protein, UniProt Q07960 1-439) MDPLSELQDDLTLDDTSEALNQLKLASIDEKNWPSDEMPDFPKSDDSKSSSPELVTHLKWDDPYYDIARHQIVEVAGDDKYGRKIIVFSACRMPPSHQLDHSKLLGYLKHTLDQYVESDYTLLYLHHGLTSDNKPSLSWLRDAYREFDRKYKKNIKALYIVHPTMFIKTLLILFKPLISFKFGQKIFDVNYLSELSEHVKLEQLGIPRQVLKYDDFLKSTQKSPATAPKPMPPRPPLPNQQFGVSLQHLQEKNPEQEPIPIVLRETVAYLQAHALTTEGIFRRSANTQVVREVQQKYNMGLPVDFDQYNELHLPAVILKTFLRELPEPLLTFDLYPHVVGFLNIDESQRVPATLQVLQTLPEENYQVLRFLTAFLVQISAHSDQNKMTNTNLAVVFGPNLLWAKDAAITLKAINPINTFTKFLLDHQGELFPSPDPSGL | binds | –
